In experiment [1] the target is T1, Flag-JHDM3A (UniProt O75164).
T1 sequence: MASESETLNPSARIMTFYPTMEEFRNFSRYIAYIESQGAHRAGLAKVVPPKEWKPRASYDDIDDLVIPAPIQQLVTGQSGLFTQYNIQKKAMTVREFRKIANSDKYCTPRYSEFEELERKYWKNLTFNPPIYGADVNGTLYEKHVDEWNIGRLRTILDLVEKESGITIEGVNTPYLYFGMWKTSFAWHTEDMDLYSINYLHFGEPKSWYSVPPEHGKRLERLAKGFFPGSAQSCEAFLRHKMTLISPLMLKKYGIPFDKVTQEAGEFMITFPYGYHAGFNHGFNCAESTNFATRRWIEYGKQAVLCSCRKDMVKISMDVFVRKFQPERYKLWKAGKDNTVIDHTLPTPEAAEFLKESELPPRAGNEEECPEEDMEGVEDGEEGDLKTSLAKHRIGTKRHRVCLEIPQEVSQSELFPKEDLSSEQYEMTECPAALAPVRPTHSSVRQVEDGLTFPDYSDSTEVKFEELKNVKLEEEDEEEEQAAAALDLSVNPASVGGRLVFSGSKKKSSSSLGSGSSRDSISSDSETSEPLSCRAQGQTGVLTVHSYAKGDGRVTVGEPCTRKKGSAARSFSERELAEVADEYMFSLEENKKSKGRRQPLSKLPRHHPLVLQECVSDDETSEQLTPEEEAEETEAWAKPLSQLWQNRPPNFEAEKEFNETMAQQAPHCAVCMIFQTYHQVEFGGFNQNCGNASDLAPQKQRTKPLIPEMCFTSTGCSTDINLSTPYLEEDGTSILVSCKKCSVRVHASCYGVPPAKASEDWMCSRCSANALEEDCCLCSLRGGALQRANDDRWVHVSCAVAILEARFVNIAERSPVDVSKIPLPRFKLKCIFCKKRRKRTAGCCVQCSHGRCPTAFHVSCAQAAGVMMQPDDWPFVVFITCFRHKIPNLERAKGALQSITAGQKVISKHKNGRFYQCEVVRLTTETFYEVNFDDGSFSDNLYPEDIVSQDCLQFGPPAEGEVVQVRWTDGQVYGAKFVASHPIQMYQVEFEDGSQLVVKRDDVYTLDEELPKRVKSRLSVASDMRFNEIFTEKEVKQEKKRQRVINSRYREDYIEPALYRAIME
As to the kind of experiment: co-IP; nuclear extracts of NIH3T3 cells over-expressing Flag-JHDM3A and GFP-HP1α; IP with anti-Flag or anti-GFP, blot with anti-HP1α or anti-JHDM3A.

Sequences of proteins named here, by UniProt entry; tags and fusion partners are left off.
UniProt Q61686: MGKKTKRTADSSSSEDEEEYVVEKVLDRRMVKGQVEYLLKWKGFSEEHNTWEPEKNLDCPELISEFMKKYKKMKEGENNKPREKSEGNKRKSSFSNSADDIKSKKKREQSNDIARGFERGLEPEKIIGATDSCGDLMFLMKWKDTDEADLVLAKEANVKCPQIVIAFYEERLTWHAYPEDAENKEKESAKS
UniProt P45973: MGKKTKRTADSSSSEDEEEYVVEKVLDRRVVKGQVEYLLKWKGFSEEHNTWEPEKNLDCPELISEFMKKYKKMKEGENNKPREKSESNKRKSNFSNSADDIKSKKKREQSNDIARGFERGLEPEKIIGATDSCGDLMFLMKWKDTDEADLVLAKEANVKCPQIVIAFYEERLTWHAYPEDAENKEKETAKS

Experiment [2] concerns the target T2, endogenous JHDM3A (mouse (endogenous in C2C12)) (UniProt Q8BW72).
T2 sequence: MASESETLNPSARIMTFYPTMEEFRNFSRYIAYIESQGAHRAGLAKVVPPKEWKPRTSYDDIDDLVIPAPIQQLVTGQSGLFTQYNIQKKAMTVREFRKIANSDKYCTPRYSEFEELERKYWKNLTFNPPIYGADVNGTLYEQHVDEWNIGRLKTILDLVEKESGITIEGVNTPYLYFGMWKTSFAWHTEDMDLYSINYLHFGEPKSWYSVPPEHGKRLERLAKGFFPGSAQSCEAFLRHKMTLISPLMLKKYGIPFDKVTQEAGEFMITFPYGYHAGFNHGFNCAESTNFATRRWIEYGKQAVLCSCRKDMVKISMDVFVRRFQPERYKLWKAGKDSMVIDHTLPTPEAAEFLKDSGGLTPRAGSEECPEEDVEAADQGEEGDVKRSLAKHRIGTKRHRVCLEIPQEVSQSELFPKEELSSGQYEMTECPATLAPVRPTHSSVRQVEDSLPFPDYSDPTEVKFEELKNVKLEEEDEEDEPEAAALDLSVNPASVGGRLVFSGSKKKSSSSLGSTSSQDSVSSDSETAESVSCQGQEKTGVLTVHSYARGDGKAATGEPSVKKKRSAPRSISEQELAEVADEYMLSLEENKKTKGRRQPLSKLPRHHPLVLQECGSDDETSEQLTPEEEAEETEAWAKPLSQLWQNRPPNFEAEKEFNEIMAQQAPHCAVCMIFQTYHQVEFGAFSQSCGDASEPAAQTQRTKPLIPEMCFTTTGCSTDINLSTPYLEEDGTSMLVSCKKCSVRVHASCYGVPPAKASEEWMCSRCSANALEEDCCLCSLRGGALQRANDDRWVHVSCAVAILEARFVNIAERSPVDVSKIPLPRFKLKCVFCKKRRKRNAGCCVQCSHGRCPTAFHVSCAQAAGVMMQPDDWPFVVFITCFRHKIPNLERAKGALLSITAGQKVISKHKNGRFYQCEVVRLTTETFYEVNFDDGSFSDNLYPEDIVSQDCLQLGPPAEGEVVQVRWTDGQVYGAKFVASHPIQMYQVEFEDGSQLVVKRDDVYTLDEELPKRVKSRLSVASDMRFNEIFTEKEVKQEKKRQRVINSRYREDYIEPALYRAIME
As to the kind of experiment: co-IP; nuclear extracts of unmodified C2C12 myoblasts; IP with anti-HP1α or anti-JHDM3A, blot for HP1α and JHDM3A.

Experiment [3] has as its target endogenous HP1α (mouse (endogenous in C2C12)) (UniProt Q61686). Described as above.
The target of experiment [4] is GFP-HP1α (UniProt P45973). As to the kind of experiment: co-IP; nuclear extracts of NIH3T3 cells over-expressing Flag-JHDM3A and GFP-HP1α; IP with anti-Flag or anti-GFP, blot with anti-HP1α or anti-JHDM3A.
For experiment [5], the target named is recombinant GST-HP1α fusion protein (UniProt Q61686). Put plainly: pull-down; in vitro translated 35S-JHDM3A incubated with GST or GST-HP1α immobilized on glutathione beads; SDS-PAGE and autoradiography; only the target purified.

These are yes or no findings as the source states them, for the method shown. Binding seen in cells or lysates may run through a third protein. Some entries that bind do so weakly or less than the wild type. For some assays here: Sequences can lack the tags named with a protein.

On to GFP-HP1α (from UniProt P45973 1-191), for which, in experiment [1], the binding result is reported as “binds”.

On to “endogenous HP1α (from UniProt Q61686 1-191)”, for which, in experiment [2], the binding result is “binds”.

B1: endogenous JHDM3A (protein, UniProt Q8BW72 1-1064)
chain: T2 sequence
As for B1, the binding result in experiment [3] is “binds”.

B2: Flag-JHDM3A (protein, UniProt O75164 1-1064)
chain: T1 sequence
In the case of B2, in experiment [4], the binding entry is given as “binds”.

B3: In vitro translated 35S-methionine-labeled JHDM3A (protein, UniProt O75164 1-1064)
chain: T1 sequence
modifications: 35S-methionine-labeled
As to B3, the binding result in experiment [5] is reported as “binds”.

(Values after PMC3594309.)
